Measurements reported in PubChem BioAssay AID1224830 (NIAID, 2016)
Shown is an unselected part of about 18,000 reagents. In the full data, about 2,900 (16%) were called active. 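Calls are made per well; low scores hint the gene aids the LPS response, high scores that it dampens it.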 Repeated entries: four replicate wells of each siRNA pool. No sequences are given here.

Screen: 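Regulators of TLR4 signalling towards TNF-alpha in macrophage-like cells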 (primary screen)
Cell system: human THP-1 monocytic leukaemia cells, TNF dual-luciferase reporter clone, PMA-differentiated to macrophage-like cells
Reagents: siRNA pool against human genes, 50 nM
Timing: LPS for 4 h, given about 3 days after siRNA transfection
Conditions: bacterial LPS (TLR4 ligand), 10 ng/ml
Detection: 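Ratio of firefly to renilla light, scaled to the plate median and expressed as a robust z-score per replicate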
Direction: TNF reporter robust z-score: higher = stronger TNF reporter response to LPS
Call rule: 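a well is active when its z-score exceeds 2.8 or falls below -1.5; control wells carry no call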

The opening 6 entries, to show the layout:
| gene knocked down | TNF reporter robust z-score | outcome |
| --- | --- | --- |
| CXXC5 (GeneID 51523) | 0.14 | inactive |
| CXXC5 (GeneID 51523) | -0.19 | inactive |
| CXXC5 (GeneID 51523) | -0.13 | inactive |
| CXXC5 (GeneID 51523) | 0.75 | inactive |
| GPR153 (GeneID 387509) | -0.43 | inactive |
| GPR153 (GeneID 387509) | 1.79 | inactive |

Main list, from the first entry:
| gene knocked down | TNF reporter robust z-score | outcome |
| --- | --- | --- |
| CXXC5 (GeneID 51523) | 0.14 | inactive |
| CXXC5 (GeneID 51523) | -0.19 | inactive |
| CXXC5 (GeneID 51523) | -0.13 | inactive |
| CXXC5 (GeneID 51523) | 0.75 | inactive |
| GPR153 (GeneID 387509) | -0.43 | inactive |
| GPR153 (GeneID 387509) | 1.79 | inactive |
| GPR153 (GeneID 387509) | -0.24 | inactive |
| GPR153 (GeneID 387509) | 0.95 | inactive |
| UVSSA (GeneID 57654) | -0.12 | inactive |
| UVSSA (GeneID 57654) | -0.35 | inactive |
| UVSSA (GeneID 57654) | 0.07 | inactive |
| UVSSA (GeneID 57654) | -0.98 | inactive |
| BAALC (GeneID 79870) | 0.29 | inactive |
| BAALC (GeneID 79870) | -0.43 | inactive |
| BAALC (GeneID 79870) | -0.93 | inactive |
| BAALC (GeneID 79870) | -1.17 | inactive |
| EMSY (GeneID 56946) | 0.53 | inactive |
| EMSY (GeneID 56946) | -0.2 | inactive |
| EMSY (GeneID 56946) | 0 | inactive |
| EMSY (GeneID 56946) | 1.05 | inactive |
| KMT2B (GeneID 9757) | -0.11 | inactive |
| KMT2B (GeneID 9757) | -0.23 | inactive |
| KMT2B (GeneID 9757) | -0.42 | inactive |
| KMT2B (GeneID 9757) | -0.85 | inactive |
| GSPT2 (GeneID 23708) | 0.51 | inactive |
| GSPT2 (GeneID 23708) | -0.14 | inactive |
| GSPT2 (GeneID 23708) | 0.02 | inactive |
| GSPT2 (GeneID 23708) | 0.74 | inactive |
| PRRG1 (GeneID 5638) | 0.55 | inactive |
| PRRG1 (GeneID 5638) | 0.8 | inactive |
| PRRG1 (GeneID 5638) | 0.27 | inactive |
| PRRG1 (GeneID 5638) | 0.09 | inactive |
| HYAL3 (GeneID 8372) | -0.01 | inactive |
| HYAL3 (GeneID 8372) | 0.39 | inactive |
| HYAL3 (GeneID 8372) | -0.04 | inactive |
| HYAL3 (GeneID 8372) | 0.55 | inactive |
| GTF3C1 (GeneID 2975) | 0.04 | inactive |
| GTF3C1 (GeneID 2975) | 0.81 | inactive |
| GTF3C1 (GeneID 2975) | 0.23 | inactive |
| GTF3C1 (GeneID 2975) | 1.18 | inactive |
| ATP5PF (GeneID 522) | -0.14 | inactive |
| ATP5PF (GeneID 522) | -0.65 | inactive |
| ATP5PF (GeneID 522) | -0.42 | inactive |
| ATP5PF (GeneID 522) | 0.09 | inactive |
| ZNF518A (GeneID 9849) | -0.32 | inactive |
| ZNF518A (GeneID 9849) | 0.03 | inactive |
| ZNF518A (GeneID 9849) | -0.39 | inactive |
| ZNF518A (GeneID 9849) | -0.82 | inactive |
| SNX14 (GeneID 57231) | -0.63 | inactive |
| SNX14 (GeneID 57231) | 0.93 | inactive |
| SNX14 (GeneID 57231) | -0.64 | inactive |
| SNX14 (GeneID 57231) | -0.79 | inactive |
| PCSK6 (GeneID 5046) | -0.03 | inactive |
| PCSK6 (GeneID 5046) | -0.41 | inactive |
| PCSK6 (GeneID 5046) | -1.15 | inactive |
| PCSK6 (GeneID 5046) | 0.15 | inactive |
| KLHL30 (GeneID 377007) | 0.17 | inactive |
| KLHL30 (GeneID 377007) | 0.45 | inactive |
| KLHL30 (GeneID 377007) | 2.04 | inactive |
| KLHL30 (GeneID 377007) | 1.94 | inactive |
| ZNF12 (GeneID 7559) | 0.06 | inactive |
| ZNF12 (GeneID 7559) | -0.61 | inactive |
| ZNF12 (GeneID 7559) | 0.6 | inactive |
| ZNF12 (GeneID 7559) | 0.64 | inactive |
| COL5A1 (GeneID 1289) | -0.11 | inactive |
| COL5A1 (GeneID 1289) | 0.82 | inactive |
| COL5A1 (GeneID 1289) | 0.51 | inactive |
| COL5A1 (GeneID 1289) | 3.1 | active |
| PLTP (GeneID 5360) | 0.03 | inactive |
| PLTP (GeneID 5360) | 0.41 | inactive |
| PLTP (GeneID 5360) | -0.24 | inactive |
| PLTP (GeneID 5360) | 1.33 | inactive |
| FREM1 (GeneID 158326) | -0.13 | inactive |
| FREM1 (GeneID 158326) | 0.68 | inactive |
| FREM1 (GeneID 158326) | 0.86 | inactive |
| FREM1 (GeneID 158326) | 1.32 | inactive |
| USP5 (GeneID 8078) | 0.16 | inactive |
| USP5 (GeneID 8078) | -1.06 | inactive |
| USP5 (GeneID 8078) | -0.38 | inactive |
| USP5 (GeneID 8078) | 0.36 | inactive |
| S100A7P3 (GeneID 645922) | 0.81 | inactive |
| S100A7P3 (GeneID 645922) | -0.8 | inactive |
| S100A7P3 (GeneID 645922) | 0.27 | inactive |
| S100A7P3 (GeneID 645922) | -0.18 | inactive |
| ZNF470 (GeneID 388566) | 1.52 | inactive |
| ZNF470 (GeneID 388566) | 3.17 | active |
| ZNF470 (GeneID 388566) | 3.37 | active |
| ZNF470 (GeneID 388566) | 1.44 | inactive |
| MACROH2A1 (GeneID 9555) | 0.89 | inactive |
| MACROH2A1 (GeneID 9555) | -0.14 | inactive |
| MACROH2A1 (GeneID 9555) | 0.13 | inactive |
| MACROH2A1 (GeneID 9555) | 0.64 | inactive |
| ETNK2 (GeneID 55224) | -1.55 | active |
| ETNK2 (GeneID 55224) | -1.36 | inactive |
| ETNK2 (GeneID 55224) | -1.3 | inactive |
| ETNK2 (GeneID 55224) | -0.74 | inactive |
| ESX1 (GeneID 80712) | -0.92 | inactive |
| ESX1 (GeneID 80712) | -0.75 | inactive |
| ESX1 (GeneID 80712) | -1.28 | inactive |
| ESX1 (GeneID 80712) | -0.37 | inactive |
| FAHD2A (GeneID 51011) | 0.46 | inactive |
| FAHD2A (GeneID 51011) | 0.66 | inactive |
| FAHD2A (GeneID 51011) | 0.21 | inactive |
| FAHD2A (GeneID 51011) | 1.12 | inactive |
| CLIP1 (GeneID 6249) | -1.08 | inactive |
| CLIP1 (GeneID 6249) | -0.95 | inactive |
| CLIP1 (GeneID 6249) | -1.16 | inactive |
| CLIP1 (GeneID 6249) | 0.08 | inactive |
| TYR (GeneID 7299) | -2.11 | active |
| TYR (GeneID 7299) | -1.53 | active |
| TYR (GeneID 7299) | -1.36 | inactive |
| TYR (GeneID 7299) | -0.91 | inactive |
